The match of structure and compound is tentative.
Key:
[1] = test system: Phosphorylation of ERK1/2 in A549 cells; test: Phospho-ERK1/2 MSD Assay, A549 (Table 15 conditions: 4 hours compound treatment); conditions: read-out: p-ERK IC50 (A549), EGF stimulation
[2] = test system: Phosphorylation of ERK1/2 in MIA PaCa-2 cells; test: Phospho-ERK1/2 MSD Assay, MIA PaCa-2 (Table 15 conditions: 4 hours compound treatment); conditions: read-out: p-ERK IC50 (MIA PaCa-2), EGF stimulation

For `C=CC(=O)N1CCN(c2snc3c(F)c(-c4cc(O)cc5ccccc45)c(Cl)cc23)[C@@H](CCO)C1`, the IC50 [1] was > 100 µM and the IC50 [2] was 8.2 µM.

Reference: patent US11905281B2 (Amgen Inc., priority 2017, dated 2024)
